From US20020160988A1 (priority 2001, published 2002)

Test system: closed head injury
Experiment: Protection against closed head injury in mice
Assay type: in vivo
Details: 10 mg/kg i.p.; tested form: bromide

`COc1ccc2cc(C(C)C(=O)OCCCCCCCC[n+]3cccc(OC(=O)N(C)C)c3)ccc2c1` (stereo not shown) was tested, and the “DNSS (difference in neurological severity score, 1 h − 24 h)” value was 2.25 and 2.3 ·.

Certain results were filed several times, with different values. The other results are left out here. The source may hold further records. The values listed for one entry differ, and nothing given here explains why; dose, time, organism, isomer or construct need not be as stated for each record.
